No constants are given. Whether binding was seen depends on the method and setting. Binding seen in cells or lysates may run through a third protein. Here binding means that the protein was enriched with, or labelled near, the bait; the list need not be complete. For part of these data: A no says only that the protein was not detected with the bait. Values belong to the substance of their own block, whether it stands above or below them.
Tests used:
[1] = target: FT-AGIA-AirID (Arabidopsis) (UniProt Q9SXZ2); test: proximity labelling; co-translational: FT-AirID co-synthesised with AGIA-FD or AGIA-DHFR in the wheat cell-free system with 500 nM biotin, 16 hr at 16 °C; immunoblotting
[2] = target: AGIA-AVVA-RG-IκBα (human) (UniProt P25963); test: proximity labelling; in vitro: proteins synthesised in the wheat cell-free system mixed and incubated at 26 °C for 1 hr, then biotin (500 nM) at 26 °C for 1-16 hr; biotinylated prey detected by SDS-PAGE and anti-biotin immunoblotting
[3] = target: AGIA-TurboID-IκBα (wheat cell-free) (human) (UniProt P25963); test: as above
[4] = target: AGIA-AVVA-RS-IκBα (human) (UniProt P25963); test: as above
AGIA-BioID-IκBα (human) = AGIA-BioID-IκBα (human) (UniProt P25963); test: as above
[5] = target: AGIA-AirID-IκBα (wheat cell-free) (human) (UniProt P25963); test: as above
[6] = target: AGIA-AirID-CRBN-YW/AA (HEK293T) (human) (UniProt Q96SW2); test: proximity labelling; in CRBN-knockout HEK293T cells co-expressing AGIA-AirID-CRBN and myc-IKZF1 or myc-SALL4; pomalidomide and MG132 for 6 hr, 5 µM biotin; immunoblotting
[7] = target: AGIA-AirID-IκBα (HEK293T) (human) (UniProt P25963); test: proximity labelling; in HEK293T cells expressing the AirID or TurboID fusion (transient or stable), biotin 0-50 µM for 1-24 hr; RIPA lysis, 1% SDS, streptavidin pull-down, immunoblotting with protein-specific antibodies

The chains behind the UniProt entries cited, without tags or fusion partners. Where a name states a change or a piece, a line headed by the entry shows the natural chain unless it says otherwise.
UniProt Q9SXZ2: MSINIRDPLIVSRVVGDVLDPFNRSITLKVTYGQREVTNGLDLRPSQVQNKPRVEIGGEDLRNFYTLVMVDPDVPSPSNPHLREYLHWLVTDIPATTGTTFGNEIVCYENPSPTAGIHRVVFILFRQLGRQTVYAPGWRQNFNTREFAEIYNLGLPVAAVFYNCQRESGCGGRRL
UniProt P25963: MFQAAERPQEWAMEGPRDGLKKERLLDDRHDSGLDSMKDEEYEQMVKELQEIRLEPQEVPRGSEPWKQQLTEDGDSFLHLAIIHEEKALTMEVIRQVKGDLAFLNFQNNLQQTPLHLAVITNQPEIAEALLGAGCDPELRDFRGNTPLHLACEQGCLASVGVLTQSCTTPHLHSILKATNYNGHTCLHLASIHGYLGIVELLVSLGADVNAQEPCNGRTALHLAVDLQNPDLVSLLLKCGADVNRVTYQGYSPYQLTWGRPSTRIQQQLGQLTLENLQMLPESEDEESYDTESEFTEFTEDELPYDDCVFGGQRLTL
UniProt Q96SW2: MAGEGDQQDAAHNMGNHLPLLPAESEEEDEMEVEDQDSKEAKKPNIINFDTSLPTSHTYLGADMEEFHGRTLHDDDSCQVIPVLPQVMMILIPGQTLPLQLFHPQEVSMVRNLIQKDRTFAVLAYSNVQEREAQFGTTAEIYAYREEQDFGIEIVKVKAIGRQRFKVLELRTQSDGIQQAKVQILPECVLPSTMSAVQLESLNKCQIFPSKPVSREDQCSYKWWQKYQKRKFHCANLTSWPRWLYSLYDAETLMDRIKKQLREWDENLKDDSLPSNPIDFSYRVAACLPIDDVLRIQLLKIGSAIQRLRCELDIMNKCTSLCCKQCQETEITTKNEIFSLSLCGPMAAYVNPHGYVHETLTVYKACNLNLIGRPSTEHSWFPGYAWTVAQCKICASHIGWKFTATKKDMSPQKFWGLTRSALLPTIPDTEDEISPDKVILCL
UniProt P0ABQ4: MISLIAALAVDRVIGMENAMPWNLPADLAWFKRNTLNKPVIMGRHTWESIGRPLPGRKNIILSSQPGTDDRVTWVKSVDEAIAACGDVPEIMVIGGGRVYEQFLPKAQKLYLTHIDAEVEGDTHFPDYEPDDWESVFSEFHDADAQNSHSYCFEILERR
UniProt Q00987: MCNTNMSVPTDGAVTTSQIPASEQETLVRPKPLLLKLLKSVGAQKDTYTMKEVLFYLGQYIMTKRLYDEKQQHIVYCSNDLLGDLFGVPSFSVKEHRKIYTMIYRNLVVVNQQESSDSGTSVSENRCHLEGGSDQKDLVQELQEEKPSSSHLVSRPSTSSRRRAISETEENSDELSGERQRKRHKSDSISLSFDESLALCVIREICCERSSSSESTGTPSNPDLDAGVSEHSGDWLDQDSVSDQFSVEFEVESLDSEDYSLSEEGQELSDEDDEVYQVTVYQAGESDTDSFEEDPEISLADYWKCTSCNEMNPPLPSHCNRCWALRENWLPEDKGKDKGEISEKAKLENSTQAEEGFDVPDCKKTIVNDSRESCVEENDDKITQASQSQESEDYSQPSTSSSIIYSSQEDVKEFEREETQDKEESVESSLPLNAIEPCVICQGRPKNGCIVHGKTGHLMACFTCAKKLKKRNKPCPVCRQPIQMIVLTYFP
UniProt Q9UJQ4: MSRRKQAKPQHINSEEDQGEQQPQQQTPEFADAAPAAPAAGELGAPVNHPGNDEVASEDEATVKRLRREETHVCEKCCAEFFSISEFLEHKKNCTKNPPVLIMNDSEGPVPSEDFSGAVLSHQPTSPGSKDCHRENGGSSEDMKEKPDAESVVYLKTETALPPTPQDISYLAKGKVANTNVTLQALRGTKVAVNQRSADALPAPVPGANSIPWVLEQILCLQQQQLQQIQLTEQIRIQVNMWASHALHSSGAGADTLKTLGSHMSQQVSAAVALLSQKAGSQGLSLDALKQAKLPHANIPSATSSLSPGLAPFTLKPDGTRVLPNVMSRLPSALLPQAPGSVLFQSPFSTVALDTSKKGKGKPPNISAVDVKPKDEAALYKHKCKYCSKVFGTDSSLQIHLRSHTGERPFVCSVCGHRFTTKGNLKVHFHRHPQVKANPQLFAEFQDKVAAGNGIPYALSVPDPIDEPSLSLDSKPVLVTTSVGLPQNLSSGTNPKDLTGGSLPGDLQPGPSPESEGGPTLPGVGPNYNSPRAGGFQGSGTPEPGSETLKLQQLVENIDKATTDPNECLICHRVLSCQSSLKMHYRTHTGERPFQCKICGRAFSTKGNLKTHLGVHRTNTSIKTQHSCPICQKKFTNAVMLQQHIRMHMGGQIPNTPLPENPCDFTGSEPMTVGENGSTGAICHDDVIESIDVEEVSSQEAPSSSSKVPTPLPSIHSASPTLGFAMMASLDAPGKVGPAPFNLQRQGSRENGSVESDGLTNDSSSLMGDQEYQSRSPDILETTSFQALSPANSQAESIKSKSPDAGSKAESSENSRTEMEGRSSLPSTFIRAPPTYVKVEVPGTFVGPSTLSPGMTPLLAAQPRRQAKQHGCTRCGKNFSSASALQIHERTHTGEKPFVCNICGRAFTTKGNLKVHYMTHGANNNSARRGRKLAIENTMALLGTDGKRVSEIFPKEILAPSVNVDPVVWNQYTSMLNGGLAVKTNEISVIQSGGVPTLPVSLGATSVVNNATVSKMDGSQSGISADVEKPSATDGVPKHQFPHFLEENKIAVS
UniProt P19838: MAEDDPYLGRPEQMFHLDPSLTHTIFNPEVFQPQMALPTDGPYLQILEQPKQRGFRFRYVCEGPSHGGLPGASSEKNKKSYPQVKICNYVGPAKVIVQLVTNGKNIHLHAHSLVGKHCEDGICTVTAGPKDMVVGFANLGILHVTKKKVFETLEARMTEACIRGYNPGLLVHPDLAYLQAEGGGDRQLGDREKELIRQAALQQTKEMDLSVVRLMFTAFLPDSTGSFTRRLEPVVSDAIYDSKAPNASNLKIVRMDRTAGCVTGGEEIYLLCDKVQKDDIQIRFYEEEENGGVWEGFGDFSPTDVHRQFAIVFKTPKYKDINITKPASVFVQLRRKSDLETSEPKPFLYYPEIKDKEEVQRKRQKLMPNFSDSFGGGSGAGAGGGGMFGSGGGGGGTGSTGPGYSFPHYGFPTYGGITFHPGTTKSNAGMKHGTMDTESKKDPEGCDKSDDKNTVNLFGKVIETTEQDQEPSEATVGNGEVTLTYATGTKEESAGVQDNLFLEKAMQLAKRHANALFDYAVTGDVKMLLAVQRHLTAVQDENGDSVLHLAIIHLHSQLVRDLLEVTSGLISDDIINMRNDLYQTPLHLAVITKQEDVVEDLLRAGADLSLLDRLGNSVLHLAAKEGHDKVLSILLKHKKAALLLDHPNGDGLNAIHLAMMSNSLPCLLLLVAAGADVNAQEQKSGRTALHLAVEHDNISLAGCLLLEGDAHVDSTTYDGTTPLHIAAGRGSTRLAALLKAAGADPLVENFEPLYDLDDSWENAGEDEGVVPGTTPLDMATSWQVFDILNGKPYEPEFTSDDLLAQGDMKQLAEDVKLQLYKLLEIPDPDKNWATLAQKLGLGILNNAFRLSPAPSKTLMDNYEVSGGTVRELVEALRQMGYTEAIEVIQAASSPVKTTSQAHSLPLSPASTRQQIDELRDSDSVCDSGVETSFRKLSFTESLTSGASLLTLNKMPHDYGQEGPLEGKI

- binding [1]: no binding
Substance: AGIA-DHFR (from UniProt P0ABQ4 1-159)

- binding [2]: no binding
- binding [3]: no binding
- binding [4]: no binding
- binding (AGIA-BioID-IκBα (human)): no binding
- binding [5]: no binding
Substance: FLAG-GST-MDM2 (from UniProt Q00987 1-491)

- binding [6]: no binding
Substance: myc-SALL4 (from UniProt Q9UJQ4 1-1053)

- binding [7]: binds
Substance: p50 (from UniProt P19838 1-433)

- binding [7]: binds
Substance: p105 (from UniProt P19838 1-968)

— PMC7302878
